# Experimental data: article PMC7819943, “Rice protein-binding microarrays: a tool to detect cis-acting elements near promoter regions in rice”
# The other results are listed elsewhere or left out.
# Target: T1, OsSMF1 (Oryza sativa, UniProt Q6ZLB0 1-436)
# T1 sequence: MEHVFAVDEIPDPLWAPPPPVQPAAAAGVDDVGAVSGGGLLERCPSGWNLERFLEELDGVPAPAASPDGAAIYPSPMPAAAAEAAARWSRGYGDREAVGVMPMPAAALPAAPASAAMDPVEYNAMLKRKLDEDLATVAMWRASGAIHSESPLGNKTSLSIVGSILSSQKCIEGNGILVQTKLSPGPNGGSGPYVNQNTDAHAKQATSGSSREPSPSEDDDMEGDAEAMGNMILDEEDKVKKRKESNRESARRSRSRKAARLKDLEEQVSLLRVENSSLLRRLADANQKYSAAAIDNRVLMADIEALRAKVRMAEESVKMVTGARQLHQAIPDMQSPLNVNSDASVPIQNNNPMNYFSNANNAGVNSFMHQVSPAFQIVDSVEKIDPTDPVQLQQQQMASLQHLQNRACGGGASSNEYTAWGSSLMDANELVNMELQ
# Assay: protein-binding microarray (RPBM); PBS, 2% BSA, 51.3 ng/ul salmon testes DNA, 50 uM zinc acetate, 200 nM TF, 25 C, 1 h; high values mean tight binding
# Conditions: protein: recombinant; tags: N-terminal polyhistidine and DsRed monomer fusion (pET32a); chain copies: 2; label: CyDye5-dUTP incorporated in the synthesized complementary strand; 3' TTTTT single-stranded linker to array surface; dsDNA, one strand shown
# Method in brief: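 Transcription factors were made in E. coli BL21-CodonPlus as N-terminal fusions to a polyhistidine tag and DsRed, then purified on Ni–NTA. After primer extension with Cy5-dUTP and blocking with 2% BSA, a custom Agilent array was exposed for 1 h at 25 °C to 200 nM protein in PBS, 2% BSA, salmon testes DNA and 50 µM zinc acetate. Washed arrays were scanned on an Axon 4000B, and the binding signal is per-feature fluorescence intensity in arbitrary units.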
row,Sequence,binding signal
1,TCTTGATCGTACCACTTATACGAAGGATGATCCTCCATGTCGGAGTCACCTAGTGCAG,3270 fluorescence intensity (a.u.)
2,GATGGTGGCTTCAATTCGCCACTACATCCACGTATGACATCGGAGTCACCTAGTGCAG,9480 fluorescence intensity (a.u.)
3,ATGCGGTCACGCCACGCCACGCCATGCCATACTCGAATCGCGGAGTCACCTAGTGCAG,8130 fluorescence intensity (a.u.)
4,GCCGAACCACACCACCGGCGTGACGTCGACGCCGCCGAGCCGGAGTCACCTAGTGCAG,9780 fluorescence intensity (a.u.)
5,GTACAATATATATGATGAATGATCGATGTGTCCGACGTGTCGGAGTCACCTAGTGCAG,7730 fluorescence intensity (a.u.)
6,GTGCCAATAGTACGCACACACGTGTCATTAGTATAAATTCCGGAGTCACCTAGTGCAG,11000 fluorescence intensity (a.u.)
7,TATACCGACTGCTTGCACATGTGGCGACAATGTAACCGTCCGGAGTCACCTAGTGCAG,5790 fluorescence intensity (a.u.)
8,ATCCAATATACAAAGGTAGTGTGCTCCTGCCTCCGCGTGGCGGAGTCACCTAGTGCAG,3380 fluorescence intensity (a.u.)
9,TCCGTACTCATTTGTCACGACGGACGTGTAGTGACGTCACCGGAGTCACCTAGTGCAG,21200 fluorescence intensity (a.u.)
10,GCTATATATTTGTTGATCAGCTAGGCTGTCAGCAGTTTAGCGGAGTCACCTAGTGCAG,3650 fluorescence intensity (a.u.)
11,TTATATTAGGACTTGGGAGTTGGGACACGTATGTTTTATGCGGAGTCACCTAGTGCAG,3990 fluorescence intensity (a.u.)
12,CCGTATAGGTCCAGCTAATATGGGCTAGTCACATAGGATGCGGAGTCACCTAGTGCAG,3720 fluorescence intensity (a.u.)
13,AAAGGCTGCACGAGCCACTTGTATTACGTTGTCATTCCTTCGGAGTCACCTAGTGCAG,4010 fluorescence intensity (a.u.)
14,GCGGGGTTCGTGGTGTGTGCGTGTGCGTCTCTCTCTGTCTCGGAGTCACCTAGTGCAG,5200 fluorescence intensity (a.u.)
15,GCTACACGAGCGAGCATGGTTGCATGAGTCATGAGTGCAACGGAGTCACCTAGTGCAG,3780 fluorescence intensity (a.u.)
16,CCACAACGGCGGCCTTCCTCCCCTACACCGGCAATGGCAACGGAGTCACCTAGTGCAG,3670 fluorescence intensity (a.u.)
17,GATACGAATACAAGTATGATGTCATGGTTTCCACTGGATACGGAGTCACCTAGTGCAG,11000 fluorescence intensity (a.u.)
18,ATGAACGAGAGGTTCTTAACCGAAGAATGCAACCTTCGAACGGAGTCACCTAGTGCAG,3180 fluorescence intensity (a.u.)
19,GGGTTTTGGAGTGGTGGTGGTGGAGGATTGGAGTTGGGGTCGGAGTCACCTAGTGCAG,3790 fluorescence intensity (a.u.)
20,GTTGCAGGGTGTACCACGTGGCCCTGTCCACCTTGCTGTTCGGAGTCACCTAGTGCAG,7030 fluorescence intensity (a.u.)
21,TTTGTTATGAAAACTTGGTTTCCTTTCATATTCCGCGTATCGGAGTCACCTAGTGCAG,3410 fluorescence intensity (a.u.)

row,Sequence,binding signal
1,TTGTTGGGTGCTGAATTGCTGATGTGGTGGGGTGACATGACGGAGTCACCTAGTGCAG,10100 fluorescence intensity (a.u.)
2,CGTGCGCAAGGCGTGTTTCTTCGGAGTTCGGATCACACGTCGGAGTCACCTAGTGCAG,3280 fluorescence intensity (a.u.)
3,CCGTAGTGGTTGACAGGTGGACCCGATCCTATATGTCAGCCGGAGTCACCTAGTGCAG,3720 fluorescence intensity (a.u.)
4,GATGGGAGTAGAGGGGAGTGAGGTGGAAGAAGATTGTTGGCGGAGTCACCTAGTGCAG,4440 fluorescence intensity (a.u.)
5,TGCTAATTTTATCCCGTGACTATCGTGCAGTAACGGAATTCGGAGTCACCTAGTGCAG,4330 fluorescence intensity (a.u.)
6,TCGCCACCGCGGCGCCCGGCTGCTGTTCCATGACTGCGCCCGGAGTCACCTAGTGCAG,3550 fluorescence intensity (a.u.)
7,AGCCCGCCGCGTCGACATCACCGCAGCCGCTCTCGTCGAGCGGAGTCACCTAGTGCAG,3500 fluorescence intensity (a.u.)
8,ACCCACAACATCACAGCACGGTTGCCGCTTGCTCCGGTGTCGGAGTCACCTAGTGCAG,3780 fluorescence intensity (a.u.)
9,CACCTAACCGTTCTCACTGACGTGTGGGACATGACGGGCTCGGAGTCACCTAGTGCAG,4890 fluorescence intensity (a.u.)
10,GAAAATAGGAACAGAGTAGGAGTGGAGAGCTCGTTGGAGGCGGAGTCACCTAGTGCAG,4180 fluorescence intensity (a.u.)
11,CTCATTTTGTCATCAGTAATGGAGATGTCATCACTACTACCGGAGTCACCTAGTGCAG,3960 fluorescence intensity (a.u.)
12,CCACCTGCCACCCACCGTCCGCGTTCGCGCGCGGCGTACCCGGAGTCACCTAGTGCAG,4690 fluorescence intensity (a.u.)
13,ACTTTCCCACCACGTACGCCCGCCACTCGCGCCGTCCCCACGGAGTCACCTAGTGCAG,5250 fluorescence intensity (a.u.)
14,CCACCACCACCACCATACAACCTACTATGATGGCGTACAGCGGAGTCACCTAGTGCAG,19900 fluorescence intensity (a.u.)
15,AGACGACGTGCCGCGGGTCACGTGTCCTCGTGGCACGCTACGGAGTCACCTAGTGCAG,4060 fluorescence intensity (a.u.)
16,GACTTGGTTGCGTAACTTTGCACTCGTTTTCCCTTGGGGACGGAGTCACCTAGTGCAG,10400 fluorescence intensity (a.u.)
17,GTCCGCCTTGAACTCCTCCACGTCCTTCCTCTTGCAGATCCGGAGTCACCTAGTGCAG,7660 fluorescence intensity (a.u.)
18,TAGTCGTCGTATCTTGATGACACGTGCGACCGGCCCGCGCCGGAGTCACCTAGTGCAG,5540 fluorescence intensity (a.u.)
19,CAATCCACATCTTCAGCACTTCAATGACTCTGAGCAAATCCGGAGTCACCTAGTGCAG,3560 fluorescence intensity (a.u.)
20,GACTCCGCGCGCACGGCCGGTGACTCGACTGCCTCGTCTCCGGAGTCACCTAGTGCAG,3700 fluorescence intensity (a.u.)
21,AAGGCCAGCTTCGGCATCGGCACCGACGATGACGCCACCGCGGAGTCACCTAGTGCAG,5610 fluorescence intensity (a.u.)

# Look-ups from the entries so far.
# Under binding signal, CCGTATAGGTCCAGCTAATATGGGCTAGTCACATAGGATGCGGAGTCACCTAGTGCAG has the entry 3720 fluorescence intensity (a.u.)
# Under binding signal, AAAGGCTGCACGAGCCACTTGTATTACGTTGTCATTCCTTCGGAGTCACCTAGTGCAG has the entry 4010 fluorescence intensity (a.u.)
# Under binding signal, CCGTAGTGGTTGACAGGTGGACCCGATCCTATATGTCAGCCGGAGTCACCTAGTGCAG has the entry 3720 fluorescence intensity (a.u.)
